# Test results from paper PMC5534435.
# Protein sequences, listed by entry. Tags and fused reporters are not part of them. Residues count along the entry.
# UniProt O55005, residues 26-1651: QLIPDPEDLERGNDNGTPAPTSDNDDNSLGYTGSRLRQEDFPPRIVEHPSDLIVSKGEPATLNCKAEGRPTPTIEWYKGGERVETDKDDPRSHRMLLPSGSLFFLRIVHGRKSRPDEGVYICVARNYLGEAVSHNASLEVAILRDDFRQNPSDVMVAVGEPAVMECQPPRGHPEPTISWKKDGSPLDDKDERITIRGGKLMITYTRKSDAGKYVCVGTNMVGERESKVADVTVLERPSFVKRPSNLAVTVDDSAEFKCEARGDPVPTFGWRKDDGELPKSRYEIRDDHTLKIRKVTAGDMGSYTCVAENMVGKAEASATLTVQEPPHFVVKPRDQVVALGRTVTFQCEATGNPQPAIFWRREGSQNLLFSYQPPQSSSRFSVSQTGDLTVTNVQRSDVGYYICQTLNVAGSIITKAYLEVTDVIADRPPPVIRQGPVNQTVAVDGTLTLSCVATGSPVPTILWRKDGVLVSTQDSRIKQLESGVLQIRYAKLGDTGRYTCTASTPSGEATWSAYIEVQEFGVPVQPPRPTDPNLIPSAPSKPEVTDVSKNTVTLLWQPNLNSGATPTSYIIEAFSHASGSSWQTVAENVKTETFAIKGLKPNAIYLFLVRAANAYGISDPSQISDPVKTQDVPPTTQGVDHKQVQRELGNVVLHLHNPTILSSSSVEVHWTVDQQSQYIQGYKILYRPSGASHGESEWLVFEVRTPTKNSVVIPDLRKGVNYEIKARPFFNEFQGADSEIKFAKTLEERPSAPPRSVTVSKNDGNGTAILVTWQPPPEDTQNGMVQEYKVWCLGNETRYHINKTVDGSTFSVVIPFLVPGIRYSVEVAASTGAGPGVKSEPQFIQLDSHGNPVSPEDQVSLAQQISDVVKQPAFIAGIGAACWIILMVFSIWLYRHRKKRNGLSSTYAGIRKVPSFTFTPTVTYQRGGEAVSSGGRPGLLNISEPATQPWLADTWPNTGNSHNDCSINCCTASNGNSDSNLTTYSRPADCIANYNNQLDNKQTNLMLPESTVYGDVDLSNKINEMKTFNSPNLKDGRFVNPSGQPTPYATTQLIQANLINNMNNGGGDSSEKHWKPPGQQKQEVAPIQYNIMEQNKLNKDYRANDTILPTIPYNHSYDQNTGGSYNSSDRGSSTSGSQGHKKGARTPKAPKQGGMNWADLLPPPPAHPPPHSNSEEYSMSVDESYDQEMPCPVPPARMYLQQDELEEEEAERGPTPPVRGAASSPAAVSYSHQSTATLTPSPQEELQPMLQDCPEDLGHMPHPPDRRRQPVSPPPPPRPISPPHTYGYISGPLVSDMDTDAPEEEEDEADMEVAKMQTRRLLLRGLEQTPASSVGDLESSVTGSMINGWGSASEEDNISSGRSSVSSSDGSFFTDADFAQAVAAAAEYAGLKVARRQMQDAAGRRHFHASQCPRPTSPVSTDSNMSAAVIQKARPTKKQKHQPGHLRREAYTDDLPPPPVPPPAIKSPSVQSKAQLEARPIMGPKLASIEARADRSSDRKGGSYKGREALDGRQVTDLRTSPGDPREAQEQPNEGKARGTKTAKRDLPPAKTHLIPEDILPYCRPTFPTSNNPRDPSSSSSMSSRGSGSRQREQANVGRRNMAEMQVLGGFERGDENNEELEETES
# UniProt O43639: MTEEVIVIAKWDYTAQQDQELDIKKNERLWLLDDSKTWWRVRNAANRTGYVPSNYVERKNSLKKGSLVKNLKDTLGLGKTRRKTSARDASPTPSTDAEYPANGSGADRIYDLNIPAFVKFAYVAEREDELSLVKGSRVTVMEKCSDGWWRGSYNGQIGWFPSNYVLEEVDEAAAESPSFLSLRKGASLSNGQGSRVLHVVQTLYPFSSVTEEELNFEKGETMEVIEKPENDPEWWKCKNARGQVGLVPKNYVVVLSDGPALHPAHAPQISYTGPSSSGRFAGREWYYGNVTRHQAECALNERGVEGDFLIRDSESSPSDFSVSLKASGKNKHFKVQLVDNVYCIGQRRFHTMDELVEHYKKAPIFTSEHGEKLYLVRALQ
# UniProt Q13153: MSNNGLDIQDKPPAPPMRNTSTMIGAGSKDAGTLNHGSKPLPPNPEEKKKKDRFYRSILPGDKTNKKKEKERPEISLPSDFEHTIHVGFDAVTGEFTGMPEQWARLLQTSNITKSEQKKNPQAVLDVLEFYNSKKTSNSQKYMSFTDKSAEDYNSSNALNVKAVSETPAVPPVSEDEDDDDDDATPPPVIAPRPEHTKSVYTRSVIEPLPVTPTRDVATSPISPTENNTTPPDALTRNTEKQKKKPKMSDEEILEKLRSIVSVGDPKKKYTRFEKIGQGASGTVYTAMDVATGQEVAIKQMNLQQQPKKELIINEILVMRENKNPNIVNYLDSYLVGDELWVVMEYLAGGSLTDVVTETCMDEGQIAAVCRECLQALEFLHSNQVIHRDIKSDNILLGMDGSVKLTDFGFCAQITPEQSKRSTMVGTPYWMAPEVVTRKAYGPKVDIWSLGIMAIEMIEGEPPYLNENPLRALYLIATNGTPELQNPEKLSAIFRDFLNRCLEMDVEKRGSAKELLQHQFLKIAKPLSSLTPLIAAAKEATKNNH
# UniProt P12023, residues 18-770: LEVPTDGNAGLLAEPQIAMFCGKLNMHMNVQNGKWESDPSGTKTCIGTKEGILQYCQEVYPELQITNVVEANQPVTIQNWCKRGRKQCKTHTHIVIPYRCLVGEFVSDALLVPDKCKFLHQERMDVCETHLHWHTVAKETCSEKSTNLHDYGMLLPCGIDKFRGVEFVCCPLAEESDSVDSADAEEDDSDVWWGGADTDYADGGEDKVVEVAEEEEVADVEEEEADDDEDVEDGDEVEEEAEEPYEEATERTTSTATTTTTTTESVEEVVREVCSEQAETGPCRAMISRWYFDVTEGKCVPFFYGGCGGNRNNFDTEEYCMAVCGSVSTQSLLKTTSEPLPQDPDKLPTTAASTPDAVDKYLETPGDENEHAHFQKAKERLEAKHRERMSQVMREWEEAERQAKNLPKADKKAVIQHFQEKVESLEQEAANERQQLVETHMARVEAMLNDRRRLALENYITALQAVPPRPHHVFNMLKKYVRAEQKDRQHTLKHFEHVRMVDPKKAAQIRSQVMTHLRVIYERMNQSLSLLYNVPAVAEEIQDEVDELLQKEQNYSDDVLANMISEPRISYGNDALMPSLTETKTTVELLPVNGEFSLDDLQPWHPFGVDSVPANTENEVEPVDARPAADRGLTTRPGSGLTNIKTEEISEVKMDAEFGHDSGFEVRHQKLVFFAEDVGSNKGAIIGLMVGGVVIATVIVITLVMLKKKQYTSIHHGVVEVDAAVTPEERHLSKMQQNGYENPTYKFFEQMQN
# These are yes or no findings as the source states them, for the method shown. Binding seen in cells or lysates may run through a third protein. Some entries that bind do so weakly or less than the wild type. For some of these results: Tags and fused reporters may be left off the sequences shown.
# Columns and labels:
# [1] = target: T1, Human Slit2 tagged with c-Myc (Slit2-Myc) (human) (UniProt O94813); experiment: co-IP; HEK293 cells transfected with the two constructs (single transfections as controls); IP with APPc, anti-HA or anti-Myc antibody, Western blot
# T1 sequence: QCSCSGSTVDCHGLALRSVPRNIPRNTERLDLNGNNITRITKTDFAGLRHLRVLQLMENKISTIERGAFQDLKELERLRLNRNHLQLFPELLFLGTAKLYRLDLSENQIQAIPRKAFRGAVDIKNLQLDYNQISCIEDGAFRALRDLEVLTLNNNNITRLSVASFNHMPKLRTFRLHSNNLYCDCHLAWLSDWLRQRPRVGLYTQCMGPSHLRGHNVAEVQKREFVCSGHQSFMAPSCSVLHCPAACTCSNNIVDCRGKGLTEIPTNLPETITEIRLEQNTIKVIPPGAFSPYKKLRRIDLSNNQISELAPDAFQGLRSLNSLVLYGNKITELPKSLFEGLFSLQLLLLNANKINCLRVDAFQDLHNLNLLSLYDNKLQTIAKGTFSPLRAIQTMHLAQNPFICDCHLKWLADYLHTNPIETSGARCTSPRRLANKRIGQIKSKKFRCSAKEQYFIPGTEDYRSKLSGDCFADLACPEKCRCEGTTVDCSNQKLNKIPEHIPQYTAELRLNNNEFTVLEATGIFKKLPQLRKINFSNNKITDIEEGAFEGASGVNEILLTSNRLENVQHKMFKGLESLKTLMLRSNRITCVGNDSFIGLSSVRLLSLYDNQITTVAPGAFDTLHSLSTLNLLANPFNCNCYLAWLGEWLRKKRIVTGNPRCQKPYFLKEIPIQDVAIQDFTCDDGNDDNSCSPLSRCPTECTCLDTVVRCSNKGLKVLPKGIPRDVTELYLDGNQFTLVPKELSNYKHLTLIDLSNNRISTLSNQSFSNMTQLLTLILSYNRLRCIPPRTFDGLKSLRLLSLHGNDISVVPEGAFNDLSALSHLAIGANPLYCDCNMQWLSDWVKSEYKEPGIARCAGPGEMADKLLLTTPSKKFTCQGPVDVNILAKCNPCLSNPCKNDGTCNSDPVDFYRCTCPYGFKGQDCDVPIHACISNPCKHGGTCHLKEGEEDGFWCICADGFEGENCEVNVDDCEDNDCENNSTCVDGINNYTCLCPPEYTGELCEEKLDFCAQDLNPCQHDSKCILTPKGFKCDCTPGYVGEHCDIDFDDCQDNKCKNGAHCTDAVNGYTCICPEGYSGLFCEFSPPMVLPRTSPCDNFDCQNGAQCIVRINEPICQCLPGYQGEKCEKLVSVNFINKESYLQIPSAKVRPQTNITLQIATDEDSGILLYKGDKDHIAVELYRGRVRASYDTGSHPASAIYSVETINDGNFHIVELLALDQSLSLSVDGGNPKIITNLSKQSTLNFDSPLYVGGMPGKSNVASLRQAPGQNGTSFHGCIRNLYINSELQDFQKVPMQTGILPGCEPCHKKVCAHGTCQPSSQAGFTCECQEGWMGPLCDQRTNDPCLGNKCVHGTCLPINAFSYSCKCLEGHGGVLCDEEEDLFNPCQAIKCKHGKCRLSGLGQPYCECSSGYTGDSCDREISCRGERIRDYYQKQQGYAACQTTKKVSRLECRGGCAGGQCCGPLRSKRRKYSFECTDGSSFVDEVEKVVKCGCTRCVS
# [2] = target: Rat Robo1 tagged with the hemagglutinin (Robo1-HA) (rat) (UniProt O55005); experiment: as above
# [3] = target: Full-length (FL) human APP695 (human) (UniProt P05067); experiment: as above
# HA-Fe65 = target: T2, HA-Fe65 (UniProt O00213); experiment: as above
# T2 sequence: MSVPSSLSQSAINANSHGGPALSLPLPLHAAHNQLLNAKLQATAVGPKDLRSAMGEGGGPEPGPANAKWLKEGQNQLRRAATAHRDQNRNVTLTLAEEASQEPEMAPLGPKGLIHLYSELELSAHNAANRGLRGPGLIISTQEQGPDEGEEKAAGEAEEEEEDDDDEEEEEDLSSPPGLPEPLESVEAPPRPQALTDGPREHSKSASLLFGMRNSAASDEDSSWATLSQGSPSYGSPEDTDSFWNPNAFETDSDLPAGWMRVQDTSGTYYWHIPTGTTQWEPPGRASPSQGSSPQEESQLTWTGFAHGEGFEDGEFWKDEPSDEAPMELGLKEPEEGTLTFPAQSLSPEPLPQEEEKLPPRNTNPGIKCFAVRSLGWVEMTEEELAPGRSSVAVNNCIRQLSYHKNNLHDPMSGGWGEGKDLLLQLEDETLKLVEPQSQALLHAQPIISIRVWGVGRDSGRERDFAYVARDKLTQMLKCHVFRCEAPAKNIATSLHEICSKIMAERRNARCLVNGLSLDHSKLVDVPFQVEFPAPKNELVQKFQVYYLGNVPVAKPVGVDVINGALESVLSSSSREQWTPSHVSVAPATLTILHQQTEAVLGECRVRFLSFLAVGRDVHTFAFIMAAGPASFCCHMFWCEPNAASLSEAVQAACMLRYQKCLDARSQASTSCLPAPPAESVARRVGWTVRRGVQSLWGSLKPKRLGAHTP
# [4] = target: T3, endogenous mouse Slit2 (mouse (endogenous in P0 brain)) (UniProt Q9R1B9); experiment: co-IP; P0 WT mouse brain lysates; IP with an anti-Slit2 antibody, Western blot with anti-APP 22C11
# T3 sequence: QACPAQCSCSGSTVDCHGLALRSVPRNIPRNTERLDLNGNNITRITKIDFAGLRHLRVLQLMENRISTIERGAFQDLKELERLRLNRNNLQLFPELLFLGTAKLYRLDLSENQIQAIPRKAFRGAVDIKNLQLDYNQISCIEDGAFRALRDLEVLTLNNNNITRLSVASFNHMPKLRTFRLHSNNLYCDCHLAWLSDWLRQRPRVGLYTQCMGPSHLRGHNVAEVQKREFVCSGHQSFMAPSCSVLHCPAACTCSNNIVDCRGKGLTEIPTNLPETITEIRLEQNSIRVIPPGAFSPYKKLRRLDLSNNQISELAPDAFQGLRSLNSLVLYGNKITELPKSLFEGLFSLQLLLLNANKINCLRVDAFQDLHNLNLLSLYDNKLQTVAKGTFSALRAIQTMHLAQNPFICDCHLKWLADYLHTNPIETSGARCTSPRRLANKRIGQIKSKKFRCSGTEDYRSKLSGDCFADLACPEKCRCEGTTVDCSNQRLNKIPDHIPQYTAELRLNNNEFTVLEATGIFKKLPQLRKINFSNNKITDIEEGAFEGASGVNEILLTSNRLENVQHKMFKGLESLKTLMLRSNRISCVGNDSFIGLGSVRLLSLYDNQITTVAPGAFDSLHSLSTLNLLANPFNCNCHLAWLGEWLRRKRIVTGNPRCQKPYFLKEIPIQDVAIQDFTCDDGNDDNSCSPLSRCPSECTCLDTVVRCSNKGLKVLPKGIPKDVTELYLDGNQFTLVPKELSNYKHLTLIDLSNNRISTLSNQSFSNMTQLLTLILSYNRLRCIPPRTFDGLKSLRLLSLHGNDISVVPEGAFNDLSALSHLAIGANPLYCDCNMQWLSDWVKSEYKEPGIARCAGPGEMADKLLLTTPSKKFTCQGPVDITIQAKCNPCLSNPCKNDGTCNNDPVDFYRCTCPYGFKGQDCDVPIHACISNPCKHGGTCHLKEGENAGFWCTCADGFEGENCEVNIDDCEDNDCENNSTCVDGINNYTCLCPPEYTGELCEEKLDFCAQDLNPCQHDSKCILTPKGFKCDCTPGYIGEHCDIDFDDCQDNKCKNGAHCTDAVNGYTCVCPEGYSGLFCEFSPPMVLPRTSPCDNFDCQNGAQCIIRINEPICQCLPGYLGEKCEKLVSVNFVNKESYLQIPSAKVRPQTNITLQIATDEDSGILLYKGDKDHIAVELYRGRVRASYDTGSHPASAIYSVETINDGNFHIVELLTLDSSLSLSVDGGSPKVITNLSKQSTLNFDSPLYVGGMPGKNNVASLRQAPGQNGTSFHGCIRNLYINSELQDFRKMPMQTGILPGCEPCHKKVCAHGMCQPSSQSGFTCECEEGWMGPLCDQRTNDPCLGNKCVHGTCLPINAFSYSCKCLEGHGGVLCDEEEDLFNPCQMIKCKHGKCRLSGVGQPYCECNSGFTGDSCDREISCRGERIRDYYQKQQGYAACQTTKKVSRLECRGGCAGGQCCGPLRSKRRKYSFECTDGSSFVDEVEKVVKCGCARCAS
Substance,binding [1],binding [3],further results
Full-length (FL) human APP695 (from UniProt P05067-4 18-695) (receptor),binds,,binding [2]: binds
HA-tagged Nck2 (Nck2-HA) (from UniProt O43639 1-380),,binds,
Myc-Pak1 (from UniProt Q13153 1-545) (enzyme),,,binding (HA-Fe65): binds
Rat Robo1 tagged with the hemagglutinin (Robo1-HA) (from UniProt O55005 26-1651) (receptor),,binds,
endogenous APP of HEK293 cells (from UniProt P05067 18-770) (receptor),binds,,
endogenous mouse APP (from UniProt P12023 18-770) (receptor),,,binding [4]: binds
